According to patent publication US20180224449A1:
These are yes or no findings as the source states them, for the method shown. Some entries that bind do so weakly or less than the wild type.

Sequences of proteins named here, by UniProt entry; tags and fusion partners are left off. Residues count along the entry.
UniProt P02769, residues 25-607: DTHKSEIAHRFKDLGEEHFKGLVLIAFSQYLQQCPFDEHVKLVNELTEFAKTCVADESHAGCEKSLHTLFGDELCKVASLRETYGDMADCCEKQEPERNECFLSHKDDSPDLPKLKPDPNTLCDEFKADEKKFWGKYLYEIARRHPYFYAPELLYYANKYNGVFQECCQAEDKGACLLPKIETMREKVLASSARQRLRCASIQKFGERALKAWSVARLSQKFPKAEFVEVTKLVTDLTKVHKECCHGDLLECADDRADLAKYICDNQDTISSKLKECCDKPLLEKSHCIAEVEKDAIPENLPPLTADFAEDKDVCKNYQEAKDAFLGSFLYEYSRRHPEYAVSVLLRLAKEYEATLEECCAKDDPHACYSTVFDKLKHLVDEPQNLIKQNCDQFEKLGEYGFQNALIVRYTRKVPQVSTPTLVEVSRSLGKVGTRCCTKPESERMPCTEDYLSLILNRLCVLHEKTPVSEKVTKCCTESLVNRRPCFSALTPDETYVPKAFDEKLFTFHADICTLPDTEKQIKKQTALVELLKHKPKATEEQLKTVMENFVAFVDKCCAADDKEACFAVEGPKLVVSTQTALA

Biological target: biotinylated bovine serum albumin (bovine) (UniProt P02769)
Test: biopanning of the phage library on biotinylated BSA

Row | Binder | binding
1 | PPKINIM (peptide, not shown: large carriers) [M13 phage displaying the PPKINIM peptide] | binds
2 | IQTNPTM (peptide, not shown: large carriers) [M13 bacteriophage displaying the IQTNPTM peptide] | binds
